Drawing on article PMC12002173, this text covers binding for three substances.

Results are given in words; binding and its absence hold for the method and conditions named. In cells and extracts the contact can be indirect. Here binding means that the protein was enriched with, or labelled near, the bait; the list need not be complete. A no says only that the protein was not detected with the bait.

The target of this experiment is T1, PHLPP2 (PH domain leucine-rich repeat-containing protein phosphatase 2), full-length human (human) (UniProt Q6ZVD8).
T1 sequence: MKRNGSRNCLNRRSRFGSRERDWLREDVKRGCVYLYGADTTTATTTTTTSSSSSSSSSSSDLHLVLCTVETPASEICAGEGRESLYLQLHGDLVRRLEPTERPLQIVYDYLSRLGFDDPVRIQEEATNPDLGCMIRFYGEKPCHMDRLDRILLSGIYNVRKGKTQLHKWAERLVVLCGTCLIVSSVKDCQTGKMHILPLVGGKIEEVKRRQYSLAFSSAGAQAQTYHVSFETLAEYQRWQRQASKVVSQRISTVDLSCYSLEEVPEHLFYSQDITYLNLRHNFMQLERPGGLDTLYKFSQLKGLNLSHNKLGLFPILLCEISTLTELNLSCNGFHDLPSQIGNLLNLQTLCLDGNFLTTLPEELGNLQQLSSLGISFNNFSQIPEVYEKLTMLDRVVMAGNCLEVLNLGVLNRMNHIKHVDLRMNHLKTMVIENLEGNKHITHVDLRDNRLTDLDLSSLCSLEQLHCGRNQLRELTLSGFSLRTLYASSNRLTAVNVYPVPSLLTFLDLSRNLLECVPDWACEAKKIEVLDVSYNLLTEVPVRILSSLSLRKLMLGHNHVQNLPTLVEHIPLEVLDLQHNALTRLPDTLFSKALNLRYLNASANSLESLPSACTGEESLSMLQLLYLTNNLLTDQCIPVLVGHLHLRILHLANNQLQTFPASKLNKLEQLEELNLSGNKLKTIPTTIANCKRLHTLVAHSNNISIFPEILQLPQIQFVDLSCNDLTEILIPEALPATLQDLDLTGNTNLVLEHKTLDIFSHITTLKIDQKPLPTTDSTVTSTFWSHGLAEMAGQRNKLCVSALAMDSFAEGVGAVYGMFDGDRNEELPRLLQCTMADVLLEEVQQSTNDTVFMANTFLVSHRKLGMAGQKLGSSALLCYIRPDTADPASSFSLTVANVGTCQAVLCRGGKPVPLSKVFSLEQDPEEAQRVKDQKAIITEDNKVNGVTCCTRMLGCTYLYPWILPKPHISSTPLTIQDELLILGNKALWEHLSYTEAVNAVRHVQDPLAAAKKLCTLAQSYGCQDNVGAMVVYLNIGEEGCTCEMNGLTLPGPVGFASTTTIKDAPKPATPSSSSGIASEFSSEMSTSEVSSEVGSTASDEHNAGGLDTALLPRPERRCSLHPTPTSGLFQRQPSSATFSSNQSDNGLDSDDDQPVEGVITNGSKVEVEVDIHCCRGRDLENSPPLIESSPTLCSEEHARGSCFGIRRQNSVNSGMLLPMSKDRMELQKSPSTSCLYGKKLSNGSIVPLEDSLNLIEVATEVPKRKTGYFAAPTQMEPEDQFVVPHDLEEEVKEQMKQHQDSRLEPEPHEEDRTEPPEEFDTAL
In words: affinity purification with mass spectrometry; peptide fingerprinting mass spectrometry of GST-tagged PHLPP2 purified from Sf9 cells by affinity, ion exchange and size-exclusion chromatography; Sf9 proteins found in the preparation. (Size exclusion chromatography separates by hydrodynamic size, large species first.)
Regarding “Spodoptera frugiperda PP2A B55 (B) regulatory subunit”, the binding entry is given as “no binding”.

In the case of “Spodoptera frugiperda PP2A catalytic (C) subunit (enzyme)”, the binding result is “no binding”.

In the case of Spodoptera frugiperda PP2A A-subunit, the binding result is on record as “no binding”.
